Test results as given in PubChem BioAssay AID624246 (National Center for Advancing Translational Sciences (NCATS), 2012).
About 100 (0.027%) of roughly 370,000 compounds were called active. This list was built around the results that the source calls inconclusive (neither active nor inactive); the mix of calls is not that of the screen. The call rests on the fitted dose curve; in most records, active means well fitted inhibition curve with a large enough effect in the polarisation, with a control signal flat; inconclusive means small, poorly fitted or top-dose-only effect, or effect the other way, or a change in a side signal; inactive means no such curve, though single readings can be large or run the other way; the % refers to the polarisation. Potencies beside an inconclusive call are fits to weak or partial responses and may not hold up. A note “side channel” means that the fit belongs to a control or component signal, not to the main read-out.
Potency means the concentration at half of the fitted maximal effect.
Wherever FP activity, negative = inhibition is given: % of control where 0% means no effect.

Sequences of proteins named here, by UniProt entry; tags and fusion partners are left off.
UniProt P11308, whole entry, looked up: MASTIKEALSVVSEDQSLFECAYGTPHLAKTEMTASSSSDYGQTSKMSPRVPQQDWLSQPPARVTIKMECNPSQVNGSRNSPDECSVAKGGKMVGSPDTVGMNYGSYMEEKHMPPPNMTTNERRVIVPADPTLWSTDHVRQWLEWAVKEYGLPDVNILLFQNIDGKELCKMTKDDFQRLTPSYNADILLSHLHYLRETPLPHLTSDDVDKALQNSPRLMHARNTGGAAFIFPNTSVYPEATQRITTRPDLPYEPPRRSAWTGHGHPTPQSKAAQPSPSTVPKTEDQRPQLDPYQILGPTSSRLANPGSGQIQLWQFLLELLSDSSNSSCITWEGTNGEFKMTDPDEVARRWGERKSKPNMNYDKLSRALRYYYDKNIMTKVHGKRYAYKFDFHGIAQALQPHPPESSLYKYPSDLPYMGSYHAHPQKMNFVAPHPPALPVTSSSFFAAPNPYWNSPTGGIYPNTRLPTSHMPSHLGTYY

What follows are compounds tested against Transcriptional regulator ERG (Homo sapiens) (UniProt P11308) (assay: qHTS for Small Molecule Inhibitors of the ERG Ets/DNA interaction). Conditions: fluorescence polarization, His-ERG Ets domain / labelled DNA; FP activity, negative = inhibition: at 76.9 µM (top of the series).
In short: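 His-tagged ERG Ets domain (1 uM in the protein solution; 300mM KCl, 50mM Tris-HCl, 1mM EDTA, 1mM DTT, pH 7.5) received compound, then a probe mix of 5 nM fluorescein-DNA and 100nM Texas-615-DNA. Fluorescence polarization was read for both dyes.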
With `COc1cc(OC)c(C(=O)Oc2ccc3c(c2)OCO3)cc1OC` the Potency was inconclusive: 14.1 µM [quencher, side channel, partial curve, poor fit].
`O=C(/C=C/c1ccc(S(=O)(=O)N2CCOCC2)cc1)N(CCO)Cc1ccccc1` was tested, and the “FP activity, negative = inhibition” value was inactive: 17.7%.
In the case of `C[C@H](NCCc1ccc(O)cc1)[C@H](O)c1ccc(O)cc1`, the Potency is reported as inconclusive: 50.1 µM [inhibitor, single point].
In the case of `CC1(C)CC2CC(C)(CN2C(=O)c2ccc([N+](=O)[O-])cc2)C1` (centres undefined), the Potency is reported as inconclusive: 3.55 µM [inhibitor, partial curve, poor fit].
For `CCNC(=S)Nc1ccc2c(c1)oc1ccccc12`, the “FP activity, negative = inhibition” value was inactive: 5.25%.
`COc1cccc(Nc2nc(CN3CCOCC3)nc3sc4c(c23)CCCC4)c1` was tested, and the “FP activity, negative = inhibition” value was inactive: -6.55%.
In the case of `O=[N+]([O-])c1ccc(NNS(=O)(=O)c2cc(Cl)ccc2Cl)nc1`, the “FP activity, negative = inhibition” value is reported as inactive: 19.6%.
With `CC(=O)Nc1ccc(S(=O)(=O)Nc2nc3ccccc3nc2Nc2ccc(O)c(C(=O)O)c2)cc1` the Potency was inconclusive: 28.2 µM [inhibitor, single point].
`O=C(N=C1SCC(=O)N1c1ccccc1Cl)c1ccccc1` was tested, and the Potency was inconclusive: 25.1 µM [fluorescent, side channel, partial curve, poor fit].
In the case of `O=C(NC1CCCC1)c1ccc2c(c1)N(Cc1ccc(F)cc1)CCS2`, the Potency is reported as inconclusive: 35.5 µM [inhibitor, partial curve, poor fit].
With `CCNC(=S)N1CCC(C(O)(c2ccccc2)c2ccccc2)CC1` the Potency was inconclusive: 39.8 µM [inhibitor, single point].
For `C[C@@H]1CN([C@H](C)CO)C(=O)c2cc(NC(=O)Nc3ccc(F)cc3)ccc2O[C@H]1CN(C)C(=O)Nc1ccc(C(F)(F)F)cc1`, the Potency was inconclusive: 0.794 µM [inhibitor, full curve, poor fit].
For `CCN(CC)c1ccc(/C=C(/C#N)c2nc3ccc(C)cc3[nH]2)c(OC(C)C)c1`, the Potency was inconclusive: 44.7 µM [fluorescent, side channel, partial curve, poor fit].
In the case of `Oc1ccc(-c2csc(Nc3cccc4ccccc34)n2)cc1O`, the Potency is reported as inconclusive: 25.1 µM [inhibitor, partial curve, poor fit].
For `CCCOc1ccc(C(=O)NC(=S)NCc2cccnc2)cc1`, the “FP activity, negative = inhibition” value was inactive: -2.62%.
With `C=CCOc1ccc(C(c2c(C(=O)O)[nH]c3ccccc23)c2c(C(=O)O)[nH]c3ccccc23)cc1` the Potency was active: 35.5 µM.
`CSc1ccc(C2C(C#N)=C(N)Oc3c2ccc(=O)c2c(C)oc(C)c32)cc1` (centres undefined) was tested, and the Potency was inconclusive: 31.6 µM [fluorescent, side channel, partial curve, poor fit].
For `COc1cc(C(C)=O)ccc1OCc1cn(CC(=O)c2ccc(O)cc2)nn1`, the “FP activity, negative = inhibition” value was inactive: -3.89%.
With `CC(C)c1ccc(NC(=O)C2CCN(c3nc(-c4ccc(C(C)C)cc4)no3)CC2)cc1` the “FP activity, negative = inhibition” value was inactive: 2.37%.
For `O=c1oc(-c2cccs2)nc2c1cnn2-c1ccccc1`, the “FP activity, negative = inhibition” value was inactive: -4.28%.
For `Cc1c(CCC(=O)O)c(=O)oc2c(C)c3occ(-c4ccc(Br)cc4)c3cc12`, the Potency was inconclusive: 39.8 µM [inhibitor, partial curve, poor fit].
In the case of `CC(=O)Nc1ccc(S(=O)(=O)N2CCCC(C(=O)N3CCN(c4ccccc4)CC3)C2)cc1` (centres undefined), the Potency is reported as inconclusive: 50.1 µM [inhibitor, partial curve, poor fit].
For `O=C(CC1C[C@H](C(=O)N2CCOCC2)[C@@]2(CCC3CCCC3)c3[nH]c4ccccc4c3CCN2C1=O)NCC12CC3CC(CC(C3)C1)C2` (some centres undefined), the Potency was inconclusive: 0.891 µM [inhibitor, full curve, poor fit].
`Cc1ncc(C(=O)Nc2ccccc2)[nH]1` was tested, and the “FP activity, negative = inhibition” value was inactive: -0.369%.
In the case of `C=CCc1ccc(OCC(O)CN2CCc3ccccc3C2)c(OC)c1` (centres undefined), the Potency is reported as inconclusive: 50.1 µM [inhibitor, single point].
`CC(C)(C)c1[nH]nc2c1C(Cc1ccccc1)C(C#N)=C(N)O2` (centres undefined) was tested, and the Potency was inconclusive: 17.8 µM [fluorescent, side channel, partial curve, poor fit].
`CC(C)(C)OC(=O)N1CCN(c2ccc(CNC(=O)c3ccc(Cl)cc3)cc2)CC1` was tested, and the Potency was inconclusive: 35.5 µM [quencher, side channel, partial curve, poor fit].
`CCNc1ccc2noc3c2c1C(=O)c1ccccc1-3` was tested, and the Potency was inconclusive: 28.2 µM [fluorescent, side channel, partial curve].
With `CCN(CCCNC(=O)CSc1cc(=O)n(C)c2cc(Cl)ccc12)c1ccccc1` the Potency was inconclusive: 44.7 µM [quencher, side channel, partial curve, poor fit].
`CCOC(=O)c1cn2nc(Oc3ccc(NC(C)=O)cc3)ccc2n1` was tested, and the Potency was inconclusive: 50.1 µM [inhibitor, single point].
In the case of `O=C(NC(=S)Nc1cccc(F)c1)c1cccc([N+](=O)[O-])c1`, the “FP activity, negative = inhibition” value is reported as inactive: -8.15%.
With `Cc1ccc(F)cc1NC(=O)CCc1c(C)[nH]c(=O)c(C#N)c1C` the Potency was inconclusive: 20 µM [inhibitor, partial curve, poor fit].
In the case of `O=S(=O)(CC(CN1CCOCC1)N1CCOCC1)c1ccccc1` (centres undefined), the “FP activity, negative = inhibition” value is reported as inactive: 4.57%.
For `CC(C)n1c(S(=O)(=O)O)nc2ccccc21`, the “FP activity, negative = inhibition” value was inactive: -4.11%.
For `COc1cccc(/C=C2\CCC(C3CCCC3)C2=O)c1` (centres undefined), the Potency was inconclusive: 31.6 µM [inhibitor, partial curve, poor fit].
In the case of `COc1ccc2c(c1)CCCC(Br)C2=O` (centres undefined), the “FP activity, negative = inhibition” value is reported as inactive: -1.16%.
With `O=C(NNC(=O)c1sccc1-n1cccc1)Nc1ccccc1` the Potency was inconclusive: 28.2 µM [inhibitor, single point].
`Cc1ccc(S(=O)(=O)NNC(=S)NC(=O)c2ccc([N+](=O)[O-])cc2)cc1` was tested, and the Potency was inconclusive: 22.4 µM [inhibitor, partial curve, poor fit].
With `COc1ccc(Cl)cc1NC(=O)CNC(c1ccccc1)c1ccccc1` the “FP activity, negative = inhibition” value was inactive: 4.95%.
With `CCCN(CCC)C(=O)c1c[nH]c2ccc(S(=O)(=O)Nc3cc(C)cc(C)c3)cc2c1=O` the Potency was inconclusive: 35.5 µM [quencher, side channel, partial curve, poor fit].
With `C=C(C)CNC(=S)NNC(=O)CCn1c2cc(Cl)ccc2c2ccc(Cl)cc21` the “FP activity, negative = inhibition” value was inactive: 5.56%.
In the case of `Cc1cc(-c2nn(-c3ccccc3F)cc2CN2CCN(c3ccccn3)CC2)c(C)s1`, the “FP activity, negative = inhibition” value is reported as inactive: -11.4%.
For `Cc1nn2c(=O)c3c4c(sc3nc2n1-c1ccccc1)COC(C)(C)C4`, the Potency was inconclusive: 7.08 µM [inhibitor, partial curve, poor fit].
In the case of `CCC(C)(C)c1ccc(OCC(=O)Nc2ccncc2)cc1`, the “FP activity, negative = inhibition” value is reported as inactive: -4.72%.
For `CC(C)CCNc1nc(-c2ccco2)c2c(c1C#N)CCCC2`, the Potency was inconclusive: 28.2 µM [quencher, side channel, partial curve, poor fit].
For `O=C(O)CCCCCN1C(=O)CSC1=S`, the Potency was inconclusive: 25.1 µM [fluorescent, side channel, partial curve].
`Cc1ccc(C)c(N2CCN(C(=O)C(C)n3c(C)c4cnn(-c5ccccc5)c(=O)c4c3C)CC2)c1` (centres undefined) was tested, and the Potency was inconclusive: 8.91 µM [inhibitor, partial curve, poor fit].
In the case of `CCc1c(C(=O)N/N=C/c2sccc2C)nnn1-c1nonc1N`, the Potency is reported as inconclusive: 31.6 µM [inhibitor, single point].
With `Cc1noc(C)c1C(=O)NCc1cccs1` the Potency was inconclusive: 39.8 µM [inhibitor, single point].
`O=C(c1ccccc1)c1ccc(Sc2ccc([N+](=O)[O-])cc2)cc1` was tested, and the “FP activity, negative = inhibition” value was inactive: -2.92%.
For `O=C(O)CNC(=O)/C(=C\c1ccc2c(c1)OCO2)NC(=O)c1ccc(Br)cc1`, the Potency was inconclusive: 11.2 µM [inhibitor, single point].
For `Fc1ccc(NC(=S)NC2CC3CCCC(C2)N3Cc2cccs2)cc1` (centres undefined), the “FP activity, negative = inhibition” value was inactive: -0.246%.
For `CC(=O)c1cccc(NC(=S)N2CCN(S(=O)(=O)c3ccc(F)cc3)CC2)c1`, the Potency was inconclusive: 3.98 µM [inhibitor, partial curve, poor fit].
For `Cc1oc(C)c2c(=O)ccc3c(c12)OC(N)=C(C#N)C3c1ccc(F)cc1` (centres undefined), the Potency was inconclusive: 35.5 µM [fluorescent, side channel, single point].
With `Cc1ccc(/C=C2\Sc3ccccc3C2=O)s1` the Potency was inconclusive: 63.1 µM [inhibitor, single point].
With `CC(C)COc1ccc(C(=O)Nc2ccc([N+](=O)[O-])cc2)cc1` the Potency was inconclusive: 50.1 µM [inhibitor, single point].
With `O=C1c2ccccc2-c2onc3c(NCCO)cc(NC4CCCCC4)c1c23` the Potency was inconclusive: 31.6 µM [fluorescent, side channel, partial curve].
`Nc1cc2[nH]c(=O)c3ccccc3c2cc1[N+](=O)[O-]` was tested, and the Potency was inconclusive: 8.91 µM [inhibitor, partial curve, poor fit].
For `Cc1ccn2c(Nc3ccc4c(c3)OCO4)c(-c3ccccn3)nc2c1`, the Potency was inconclusive: 50.1 µM [inhibitor, single point].
With `CN(CC(=O)NC(=O)NC1CCCCC1)CC(=O)Nc1ccc(Cl)cc1` the Potency was inconclusive: 31.6 µM [inhibitor, single point].
With `COC(=O)C1CSC(C(=O)OC)N1C(=O)CN1CCN(c2ccccc2)CC1` (centres undefined) the Potency was inconclusive: 6.31 µM [inhibitor, single point].
For `O=C1/C(=C2\C(=O)N(Cc3ccc(F)cc3)c3ccccc32)SC(=S)N1CCS(=O)(=O)O`, the “FP activity, negative = inhibition” value was inactive: 4.19%.
`c1ccc(N=Nc2ccc3cccccc2-3)cc1` was tested, and the Potency was inconclusive: 15.8 µM [inhibitor, partial curve, poor fit].
In the case of `Cc1ccc(-n2c(C)cc(C(=O)NS(=O)(=O)c3ccc(C)cc3)c2C)cc1`, the Potency is reported as inconclusive: 7.94 µM [inhibitor, single point].
